Results from article PMC6892914, “Interactions of Ionic Liquids and Spirocyclic Compounds with Liposome Model Membranes. A Steady-State Fluorescence Anisotropy Study” (Scientific Reports, 2019).

How the values were obtained:
Type in all cases: physicochemical
Conditions in all cases: compound 50 mM, 5 min incubation at RT
[1] = Steady-state fluorescence anisotropy of DPH-doped liposomes, POPC
Description: (§1) The technique used in the present study was steady-state fluorescence anisotropy spectroscopy (fluorescence anisotropy or anisotropy in the following text). The technique was utilised to detect organisational changes within the lipid bilayer using a fluorescent 1,6-diphenyl-1,3,5-hexatriene (DPH) probe. DPH is advantageous in the present application due to its high quantum yield and its ability to indicate subtle changes in the lipid acyl chain organisation. For general reviews on the technique, see Shinitzky & Barenholz[18] and Lentz[19]. […] This depolarization can be measured as a numerical value of anisotropy (r), as shown by Eq. 1.1 r=I||−I⊥/IT where I|| and I⊥ are the intensities of emitted light parallel and perpendicular to the plane of excitation, respectively. […]
(§2) A reference anisotropy value for each pure liposome was determined daily. […] The anisotropy was measured ten times and the mean ± standard deviation was calculated. […] Similar to the reference measurements, the fluorescence anisotropy value after incubation with the ILs was recorded 10 times and the mean ± standard deviation was calculated. […]
(§3) The fluorescence anisotropy values were measured using a Horiba Jobin Yvon (Northampton, UK) FluoroMax-4 spectrofluorometer, in L-format. […]

[2] = Steady-state fluorescence anisotropy of DPH-doped liposomes, POPC/POPS 80:20
Description: as §1, §2, §3

[3] = Steady-state fluorescence anisotropy of DPH-doped liposomes, POPC/Chol 75:25
Description: as §1, §2, §3

[4] = Steady-state fluorescence anisotropy of DPH-doped liposomes, POPC/POPS/Chol 55:20:25
Description: as §1, §2, §3

SMILES: C1CN=C2CCCN2C1.CS(=O)(=O)O [[DBNH][OMs], 1,5-Diazabicyclo[4.3.0]non-5-enium mesylate]
- Relative change in anisotropy, Δr [1]: -34%
- Relative change in anisotropy, Δr [2]: -46%
- Relative change in anisotropy, Δr [3]: -47%
- Relative change in anisotropy, Δr [4]: -42%
